In the supplement of paper PMC12823440, “Inhibitors supercharge kinase turnover through native proteolytic circuits” (Nature, 2025):
Structures can show the parent of a compound that is named as a salt. The list shows a part of the results. The calls rarely recur for the same compound in another form.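 In K562 cells expressing nanoluciferase-fused kinases, luminescence was recorded at 4 h intervals between 2 and 18 h, normalized as percent of control with DMSO at 100% and a positive control at 0%. A significant (2 sigma) signal drop marks a time point as decreased. The authors' rule for a hit is not shown and takes in more than the number of time points.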

By UniProt entry, the sequences of proteins in these tests, tags left out. Where a name states a change or a piece, a line headed by the entry shows the natural chain unless it says otherwise.
UniProt P50613: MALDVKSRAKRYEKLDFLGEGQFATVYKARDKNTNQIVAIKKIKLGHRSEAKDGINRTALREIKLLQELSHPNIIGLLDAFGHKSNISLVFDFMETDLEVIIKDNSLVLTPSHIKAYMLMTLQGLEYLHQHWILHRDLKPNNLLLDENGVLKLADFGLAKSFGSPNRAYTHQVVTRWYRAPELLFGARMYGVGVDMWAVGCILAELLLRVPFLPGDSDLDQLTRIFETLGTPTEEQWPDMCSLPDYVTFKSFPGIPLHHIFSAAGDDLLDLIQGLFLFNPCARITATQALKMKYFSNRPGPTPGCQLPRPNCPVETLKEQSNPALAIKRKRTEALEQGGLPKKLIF
UniProt P50750, whole entry: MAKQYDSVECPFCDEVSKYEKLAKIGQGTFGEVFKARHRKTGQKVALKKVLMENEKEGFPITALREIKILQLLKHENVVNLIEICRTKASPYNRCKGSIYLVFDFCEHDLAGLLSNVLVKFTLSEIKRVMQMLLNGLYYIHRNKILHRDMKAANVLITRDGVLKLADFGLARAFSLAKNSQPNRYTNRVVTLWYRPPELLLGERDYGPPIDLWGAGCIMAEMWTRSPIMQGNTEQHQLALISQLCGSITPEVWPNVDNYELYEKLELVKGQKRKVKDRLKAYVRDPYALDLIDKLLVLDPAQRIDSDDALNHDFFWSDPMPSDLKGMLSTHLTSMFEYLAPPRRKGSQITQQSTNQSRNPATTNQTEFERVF
UniProt O96017, whole entry: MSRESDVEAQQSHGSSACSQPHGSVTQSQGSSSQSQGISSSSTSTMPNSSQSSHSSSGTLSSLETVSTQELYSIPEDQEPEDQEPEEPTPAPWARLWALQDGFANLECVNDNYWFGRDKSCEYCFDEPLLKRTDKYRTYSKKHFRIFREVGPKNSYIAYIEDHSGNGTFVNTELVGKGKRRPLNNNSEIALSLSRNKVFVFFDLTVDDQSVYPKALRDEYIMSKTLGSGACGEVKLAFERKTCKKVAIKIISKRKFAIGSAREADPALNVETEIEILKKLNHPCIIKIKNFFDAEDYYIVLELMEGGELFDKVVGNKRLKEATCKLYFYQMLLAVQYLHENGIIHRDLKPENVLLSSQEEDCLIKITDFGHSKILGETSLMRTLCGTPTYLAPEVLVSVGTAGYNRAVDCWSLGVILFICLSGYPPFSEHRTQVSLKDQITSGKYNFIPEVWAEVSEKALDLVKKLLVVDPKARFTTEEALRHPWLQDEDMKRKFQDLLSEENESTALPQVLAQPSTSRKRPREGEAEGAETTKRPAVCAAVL
UniProt P07333, whole entry: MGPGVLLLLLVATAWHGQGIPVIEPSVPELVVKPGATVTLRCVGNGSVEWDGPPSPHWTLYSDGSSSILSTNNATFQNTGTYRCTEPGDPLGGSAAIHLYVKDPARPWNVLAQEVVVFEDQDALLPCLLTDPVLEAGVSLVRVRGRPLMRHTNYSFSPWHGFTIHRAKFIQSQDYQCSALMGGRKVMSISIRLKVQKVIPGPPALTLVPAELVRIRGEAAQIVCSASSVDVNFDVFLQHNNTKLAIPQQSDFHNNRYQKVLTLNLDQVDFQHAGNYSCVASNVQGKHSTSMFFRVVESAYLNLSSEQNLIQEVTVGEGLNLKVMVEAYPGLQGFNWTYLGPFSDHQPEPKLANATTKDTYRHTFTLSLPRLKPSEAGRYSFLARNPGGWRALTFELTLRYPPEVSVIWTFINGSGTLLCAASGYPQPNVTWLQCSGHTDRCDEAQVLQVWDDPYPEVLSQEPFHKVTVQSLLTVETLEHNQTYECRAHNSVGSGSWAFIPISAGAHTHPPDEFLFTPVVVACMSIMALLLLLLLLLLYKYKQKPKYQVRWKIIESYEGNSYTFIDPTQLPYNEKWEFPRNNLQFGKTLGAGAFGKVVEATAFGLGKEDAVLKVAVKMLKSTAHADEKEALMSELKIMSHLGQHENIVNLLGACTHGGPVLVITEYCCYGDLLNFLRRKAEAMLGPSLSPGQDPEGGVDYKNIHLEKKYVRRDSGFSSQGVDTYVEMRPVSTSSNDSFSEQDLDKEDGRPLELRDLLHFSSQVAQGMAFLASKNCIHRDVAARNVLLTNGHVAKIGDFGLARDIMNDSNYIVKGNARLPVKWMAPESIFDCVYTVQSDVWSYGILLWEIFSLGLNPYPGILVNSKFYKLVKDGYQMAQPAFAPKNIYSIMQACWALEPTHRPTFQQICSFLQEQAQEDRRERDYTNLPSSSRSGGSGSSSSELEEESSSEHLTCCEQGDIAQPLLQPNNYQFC
UniProt P41240: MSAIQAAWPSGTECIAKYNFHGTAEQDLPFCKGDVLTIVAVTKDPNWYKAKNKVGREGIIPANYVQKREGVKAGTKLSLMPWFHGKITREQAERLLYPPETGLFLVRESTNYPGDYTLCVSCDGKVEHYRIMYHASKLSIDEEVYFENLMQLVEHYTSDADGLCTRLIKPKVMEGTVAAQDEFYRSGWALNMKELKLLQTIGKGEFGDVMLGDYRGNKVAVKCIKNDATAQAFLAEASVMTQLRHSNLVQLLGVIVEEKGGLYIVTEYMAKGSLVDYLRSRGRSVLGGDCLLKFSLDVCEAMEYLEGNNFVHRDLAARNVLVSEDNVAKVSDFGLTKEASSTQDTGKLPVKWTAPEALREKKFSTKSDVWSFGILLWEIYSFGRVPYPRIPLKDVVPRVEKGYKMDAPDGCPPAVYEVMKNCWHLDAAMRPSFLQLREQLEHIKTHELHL
UniProt P48729: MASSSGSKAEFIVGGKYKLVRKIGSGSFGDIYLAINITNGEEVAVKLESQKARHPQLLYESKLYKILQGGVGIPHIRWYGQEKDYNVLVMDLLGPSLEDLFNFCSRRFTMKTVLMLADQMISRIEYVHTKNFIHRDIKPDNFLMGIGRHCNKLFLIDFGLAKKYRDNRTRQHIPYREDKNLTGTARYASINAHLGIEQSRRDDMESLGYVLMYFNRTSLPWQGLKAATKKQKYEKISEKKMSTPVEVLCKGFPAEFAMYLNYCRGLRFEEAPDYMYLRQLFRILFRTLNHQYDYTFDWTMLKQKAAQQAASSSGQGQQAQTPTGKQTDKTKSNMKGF
UniProt P48730: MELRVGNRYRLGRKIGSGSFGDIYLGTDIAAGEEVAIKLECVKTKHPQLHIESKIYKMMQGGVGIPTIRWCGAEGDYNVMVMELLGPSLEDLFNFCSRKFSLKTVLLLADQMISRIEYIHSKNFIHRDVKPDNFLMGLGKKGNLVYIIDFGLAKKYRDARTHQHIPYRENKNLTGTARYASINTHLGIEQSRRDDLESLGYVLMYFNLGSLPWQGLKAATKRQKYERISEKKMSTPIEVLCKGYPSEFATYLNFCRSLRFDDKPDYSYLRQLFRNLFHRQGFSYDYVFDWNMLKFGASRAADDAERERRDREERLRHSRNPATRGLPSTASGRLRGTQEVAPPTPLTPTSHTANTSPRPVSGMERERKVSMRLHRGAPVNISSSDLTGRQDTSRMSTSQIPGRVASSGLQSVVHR
UniProt Q08345: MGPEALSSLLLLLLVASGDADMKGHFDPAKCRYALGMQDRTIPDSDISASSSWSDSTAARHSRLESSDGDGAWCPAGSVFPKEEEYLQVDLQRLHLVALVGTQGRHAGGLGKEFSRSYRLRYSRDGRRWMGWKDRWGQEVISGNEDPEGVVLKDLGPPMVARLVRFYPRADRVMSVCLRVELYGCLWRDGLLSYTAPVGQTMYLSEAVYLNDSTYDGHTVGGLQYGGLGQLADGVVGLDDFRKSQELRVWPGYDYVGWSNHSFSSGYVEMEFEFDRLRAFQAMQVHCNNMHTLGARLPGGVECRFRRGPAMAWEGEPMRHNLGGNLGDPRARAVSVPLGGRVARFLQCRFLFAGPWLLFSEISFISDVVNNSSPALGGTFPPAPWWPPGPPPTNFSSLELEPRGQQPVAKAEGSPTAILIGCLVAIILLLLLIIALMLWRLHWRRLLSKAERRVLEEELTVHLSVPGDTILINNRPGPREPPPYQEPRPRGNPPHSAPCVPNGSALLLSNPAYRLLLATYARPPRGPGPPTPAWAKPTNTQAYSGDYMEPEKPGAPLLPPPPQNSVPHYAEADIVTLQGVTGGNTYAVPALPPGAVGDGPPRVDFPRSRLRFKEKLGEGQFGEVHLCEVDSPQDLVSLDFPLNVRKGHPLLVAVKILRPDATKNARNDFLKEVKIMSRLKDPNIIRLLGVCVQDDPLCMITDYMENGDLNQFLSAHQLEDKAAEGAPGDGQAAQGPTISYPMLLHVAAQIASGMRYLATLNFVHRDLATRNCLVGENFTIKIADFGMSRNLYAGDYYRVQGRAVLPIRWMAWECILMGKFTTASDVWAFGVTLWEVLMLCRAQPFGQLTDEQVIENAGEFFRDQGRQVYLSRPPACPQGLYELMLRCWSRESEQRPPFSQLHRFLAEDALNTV
UniProt Q9Y463, whole entry, looked up: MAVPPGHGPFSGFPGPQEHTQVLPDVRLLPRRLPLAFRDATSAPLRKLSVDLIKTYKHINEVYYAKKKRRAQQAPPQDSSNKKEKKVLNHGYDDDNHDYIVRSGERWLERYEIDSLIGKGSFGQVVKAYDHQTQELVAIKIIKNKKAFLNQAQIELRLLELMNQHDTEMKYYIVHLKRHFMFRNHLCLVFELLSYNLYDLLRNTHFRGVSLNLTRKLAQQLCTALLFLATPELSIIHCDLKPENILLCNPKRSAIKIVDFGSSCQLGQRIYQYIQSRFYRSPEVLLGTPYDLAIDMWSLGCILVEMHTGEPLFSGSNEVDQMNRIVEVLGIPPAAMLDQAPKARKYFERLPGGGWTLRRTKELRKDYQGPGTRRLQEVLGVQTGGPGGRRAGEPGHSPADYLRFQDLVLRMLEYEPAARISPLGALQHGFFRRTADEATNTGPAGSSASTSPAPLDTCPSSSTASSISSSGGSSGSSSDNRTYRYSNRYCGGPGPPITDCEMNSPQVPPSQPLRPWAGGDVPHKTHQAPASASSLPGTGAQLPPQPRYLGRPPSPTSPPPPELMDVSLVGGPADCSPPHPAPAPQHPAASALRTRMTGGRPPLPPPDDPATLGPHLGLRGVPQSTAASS
UniProt Q92630: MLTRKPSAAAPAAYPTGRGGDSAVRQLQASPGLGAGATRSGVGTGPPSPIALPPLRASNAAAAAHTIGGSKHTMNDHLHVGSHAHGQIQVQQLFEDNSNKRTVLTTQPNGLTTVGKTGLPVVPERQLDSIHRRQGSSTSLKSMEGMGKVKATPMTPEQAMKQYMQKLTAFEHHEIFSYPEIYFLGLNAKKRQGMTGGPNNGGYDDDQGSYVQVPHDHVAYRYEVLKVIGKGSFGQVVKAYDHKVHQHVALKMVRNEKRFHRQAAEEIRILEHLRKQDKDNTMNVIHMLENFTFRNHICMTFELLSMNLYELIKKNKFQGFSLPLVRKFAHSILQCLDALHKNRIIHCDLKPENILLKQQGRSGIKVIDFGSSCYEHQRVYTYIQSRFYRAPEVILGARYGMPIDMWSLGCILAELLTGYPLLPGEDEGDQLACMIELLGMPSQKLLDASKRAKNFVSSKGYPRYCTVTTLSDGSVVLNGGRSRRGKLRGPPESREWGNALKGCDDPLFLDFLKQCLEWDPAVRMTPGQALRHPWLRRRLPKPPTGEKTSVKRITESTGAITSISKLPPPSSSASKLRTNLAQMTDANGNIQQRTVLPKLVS

Assays:
Assay in all cases: kinase-Nluc reporter destabilization hit call (1 = scored as downregulated) (binary); higher = compound decreases kinase abundance
Settings in all cases: K562, 2-18 h
[1] = biological target: CDK7 (UniProt P50613)
[2] = biological target: CDK9 (UniProt P50750)
[3] = biological target: CHEK2 (UniProt O96017)
[4] = biological target: CSF1R (UniProt P07333)
[5] = biological target: CSK (UniProt P41240)
[6] = biological target: CSNK1A1 (UniProt P48729)
[7] = biological target: CSNK1D (UniProt P48730)
[8] = biological target: DDR1 (UniProt Q08345)
[9] = biological target: DYRK1B (UniProt Q9Y463)
[10] = biological target: DYRK2 (UniProt Q92630)

Measured: kinase-Nluc reporter destabilization hit call

CN1CCCN(C(=O)c2cccc(-c3ccc(/C=C4/C(=O)Nc5ccc(Cl)cc54)o3)c2)CC1 [CX-6258 (hydrochloride)]
inactive: [1]; 2.5 µM 0 | [2]; 2.5 µM 0 | [3]; 2.5 µM 0 | [4]; 2.5 µM 0 | [5]; 2.5 µM 0 | [6]; 2.5 µM 0 | [7]; 2.5 µM 0 | [8]; 2.5 µM 0 | [9]; 2.5 µM 0 | [10]; 2.5 µM 0

O=C(Nc1cnn2ccc(N3CCC[C@@H]3c3cc(F)ccc3F)nc12)N1CC[C@H](O)C1 [Larotrectinib]
inactive: [1]; 10 µM 0 | [2]; 10 µM 0 | [3]; 10 µM 0 | [4]; 10 µM 0 | [5]; 10 µM 0 | [6]; 10 µM 0 | [7]; 10 µM 0 | [8]; 10 µM 0 | [9]; 10 µM 0 | [10]; 10 µM 0

O=C(c1nn(-c2ccc(CN3CCOCC3)cc2)c2c1CS(=O)(=O)c1c(F)cccc1-2)N1CCOCC1
inactive: [1]; 10 µM 0 | [2]; 10 µM 0 | [3]; 10 µM 0 | [4]; 10 µM 0 | [5]; 10 µM 0 | [6]; 10 µM 0 | [7]; 10 µM 0 | [8]; 10 µM 0 | [9]; 10 µM 0 | [10]; 10 µM 0

CS(=O)(=O)N1CCN(Cc2cc3nc(-c4cccc5[nH]ncc45)nc(N4CCOCC4)c3s2)CC1 [Pictilisib (dimethanesulfonate)]
inactive: [1]; 10 µM 0 | [2]; 10 µM 0 | [3]; 10 µM 0 | [4]; 10 µM 0 | [5]; 10 µM 0 | [6]; 10 µM 0 | [7]; 10 µM 0 | [8]; 10 µM 0 | [9]; 10 µM 0 | [10]; 10 µM 0

CCCC(=O)Nc1ncnc2c1ncn2[C@@H]1O[C@@H]2COP(=O)(O)O[C@H]2[C@H]1OC(=O)CCC [Bucladesine (calcium)]
inactive: [1]; 10 µM 0 | [2]; 10 µM 0 | [3]; 10 µM 0 | [4]; 10 µM 0 | [5]; 10 µM 0 | [6]; 10 µM 0 | [7]; 10 µM 0 | [8]; 10 µM 0 | [9]; 10 µM 0 | [10]; 10 µM 0

CN(C)C(=O)c1cc2cnc(Nc3ccc(N4CCNCC4)cn3)nc2n1C1CCCC1 [Ribociclib succinate]
inactive: [1]; 10 µM 0 | [2]; 10 µM 0 | [3]; 10 µM 0 | [4]; 10 µM 0 | [5]; 10 µM 0 | [6]; 10 µM 0 | [7]; 10 µM 0 | [8]; 10 µM 0 | [9]; 10 µM 0 | [10]; 10 µM 0

C[S+]([O-])c1ccc(-c2nc(-c3ccc(F)cc3)c(-c3ccncc3)[nH]2)cc1 (stereo not given)
inactive: [1]; 10 µM 0 | [2]; 10 µM 0 | [3]; 10 µM 0 | [4]; 10 µM 0 | [5]; 10 µM 0 | [6]; 10 µM 0 | [7]; 10 µM 0 | [8]; 10 µM 0 | [9]; 10 µM 0 | [10]; 10 µM 0

C#Cc1cccc(Nc2ncnc3cc(OCCOC)c(OCCOC)cc23)c1 [Erlotinib]
inactive: [1]; 10 µM 0 | [2]; 10 µM 0 | [3]; 10 µM 0 | [4]; 10 µM 0 | [5]; 10 µM 0 | [6]; 10 µM 0 | [7]; 10 µM 0 | [8]; 10 µM 0 | [9]; 10 µM 0 | [10]; 10 µM 0

COc1cc2c(cc1OC)-c1c(C)c3ccc(OC)c(OC)c3c[n+]1CC2 [Dehydrocorydaline (chloride)]
inactive: [1]; 10 µM 0 | [2]; 10 µM 0 | [3]; 10 µM 0 | [4]; 10 µM 0 | [5]; 10 µM 0 | [6]; 10 µM 0 | [7]; 10 µM 0 | [8]; 10 µM 0 | [9]; 10 µM 0 | [10]; 10 µM 0

Two records picked at random from the list so far, as already listed:
C#Cc1cccc(Nc2ncnc3cc(OCCOC)c(OCCOC)cc23)c1 [Erlotinib]
inactive: [1]; 10 µM 0 | [2]; 10 µM 0 | [3]; 10 µM 0 | [4]; 10 µM 0 | [5]; 10 µM 0 | [6]; 10 µM 0 | [7]; 10 µM 0 | [8]; 10 µM 0 | [9]; 10 µM 0 | [10]; 10 µM 0

CCCC(=O)Nc1ncnc2c1ncn2[C@@H]1O[C@@H]2COP(=O)(O)O[C@H]2[C@H]1OC(=O)CCC [Bucladesine (calcium)]
inactive: [1]; 10 µM 0 | [2]; 10 µM 0 | [3]; 10 µM 0 | [4]; 10 µM 0 | [5]; 10 µM 0 | [6]; 10 µM 0 | [7]; 10 µM 0 | [8]; 10 µM 0 | [9]; 10 µM 0 | [10]; 10 µM 0

Continuation.

Cc1cc(Nc2ncc(Cl)c(Nc3ccccc3S(=O)(=O)C(C)C)n2)c(OC(C)C)cc1C1CCNCC1 [Ceritinib dihydrochloride]
inactive: [1]; 2.5 µM 0 | [2]; 2.5 µM 0 | [3]; 2.5 µM 0 | [4]; 2.5 µM 0 | [5]; 2.5 µM 0 | [6]; 2.5 µM 0 | [7]; 2.5 µM 0 | [8]; 2.5 µM 0 | [9]; 2.5 µM 0 | [10]; 2.5 µM 0

N#CCC1(n2cc(-c3ncnc4[nH]ccc34)cn2)CN(C2CCN(C(=O)c3ccnc(C(F)(F)F)c3F)CC2)C1 [Itacitinib]
inactive: [1]; 10 µM 0 | [2]; 10 µM 0 | [3]; 10 µM 0 | [4]; 10 µM 0 | [5]; 10 µM 0 | [6]; 10 µM 0 | [7]; 10 µM 0 | [8]; 10 µM 0 | [9]; 10 µM 0 | [10]; 10 µM 0

COc1cc(/C=C/C(=O)O)ccc1O [Ferulic acid (sodium)]
inactive: [1]; 10 µM 0 | [2]; 10 µM 0 | [3]; 10 µM 0 | [4]; 10 µM 0 | [5]; 10 µM 0 | [6]; 10 µM 0 | [7]; 10 µM 0 | [8]; 10 µM 0 | [9]; 10 µM 0 | [10]; 10 µM 0

O=C(O)c1ccc2c(c1)nc(Nc1cccc(Cl)c1)c1ccncc12 [Silmitasertib (sodium salt)]
inactive: [1]; 10 µM 0 | [2]; 10 µM 0 | [3]; 10 µM 0 | [4]; 10 µM 0 | [5]; 10 µM 0 | [6]; 10 µM 0 | [7]; 10 µM 0 | [8]; 10 µM 0 | [9]; 10 µM 0 | [10]; 10 µM 0

C#Cc1cccc(Nc2ncnc3cc(OCCOC)c(OCCOC)cc23)c1 [Erlotinib (Hydrochloride)]
inactive: [1]; 10 µM 0 | [2]; 10 µM 0 | [3]; 10 µM 0 | [4]; 10 µM 0 | [5]; 10 µM 0 | [6]; 10 µM 0 | [7]; 10 µM 0 | [8]; 10 µM 0 | [9]; 10 µM 0 | [10]; 10 µM 0

C/C=C1\C(=O)C[C@H]2[C@@H]3CCC4=CC(=O)CC[C@]4(C)[C@H]3CC[C@]12C [Guggulsterone]
inactive: [1]; 10 µM 0 | [2]; 10 µM 0 | [3]; 10 µM 0 | [4]; 10 µM 0 | [5]; 10 µM 0 | [6]; 10 µM 0 | [7]; 10 µM 0 | [8]; 10 µM 0 | [9]; 10 µM 0 | [10]; 10 µM 0

CS(=O)(=O)N1CCN(Cc2cc3nc(-c4cccc5[nH]ncc45)nc(N4CCOCC4)c3s2)CC1 [Pictilisib]
inactive: [1]; 10 µM 0 | [2]; 10 µM 0 | [3]; 10 µM 0 | [4]; 10 µM 0 | [5]; 10 µM 0 | [6]; 10 µM 0 | [7]; 10 µM 0 | [8]; 10 µM 0 | [9]; 10 µM 0 | [10]; 10 µM 0

CC(=O)Nc1cccc(-n2c(=O)n(C3CC3)c(=O)c3c(Nc4ccc(I)cc4F)n(C)c(=O)c(C)c32)c1 [Trametinib]
active: [2]; 10 µM 1
inactive: [1]; 10 µM 0 | [3]; 10 µM 0 | [4]; 10 µM 0 | [5]; 10 µM 0 | [6]; 10 µM 0 | [7]; 10 µM 0 | [8]; 10 µM 0 | [9]; 10 µM 0 | [10]; 10 µM 0

C/C=C1\C(=O)C[C@H]2[C@@H]3CCC4=CC(=O)CC[C@]4(C)[C@H]3CC[C@]12C [(Z)-Guggulsterone]
inactive: [1]; 10 µM 0 | [2]; 10 µM 0 | [3]; 10 µM 0 | [4]; 10 µM 0 | [5]; 10 µM 0 | [6]; 10 µM 0 | [7]; 10 µM 0 | [8]; 10 µM 0 | [9]; 10 µM 0 | [10]; 10 µM 0

CN(C)C/C=C/C(=O)Nc1cc2c(Nc3ccc(F)c(Cl)c3)ncnc2cc1O[C@H]1CCOC1 [Afatinib (dimaleate)]
inactive: [1]; 2.5 µM 0 | [2]; 2.5 µM 0 | [3]; 2.5 µM 0 | [4]; 2.5 µM 0 | [5]; 2.5 µM 0 | [6]; 2.5 µM 0 | [7]; 2.5 µM 0 | [8]; 2.5 µM 0 | [9]; 2.5 µM 0 | [10]; 2.5 µM 0

Cc1nc2ccc(-n3c(-c4nonc4N)nc4cnccc43)cc2[nH]1
inactive: [1]; 10 µM 0 | [2]; 10 µM 0 | [3]; 10 µM 0 | [4]; 10 µM 0 | [5]; 10 µM 0 | [6]; 10 µM 0 | [7]; 10 µM 0 | [8]; 10 µM 0 | [9]; 10 µM 0 | [10]; 10 µM 0

COc1ncc(F)cc1CNc1ccc(Cc2c[nH]c3ncc(C)cc23)c(F)n1
inactive: [1]; 10 µM 0 | [2]; 10 µM 0 | [3]; 10 µM 0 | [4]; 10 µM 0 | [5]; 10 µM 0 | [6]; 10 µM 0 | [7]; 10 µM 0 | [8]; 10 µM 0 | [9]; 10 µM 0 | [10]; 10 µM 0

N=C(N)NC(=O)c1nc(Cl)c(N)nc1N [Amiloride hydrochloride dihydrate]
inactive: [1]; 10 µM 0 | [2]; 10 µM 0 | [3]; 10 µM 0 | [4]; 10 µM 0 | [5]; 10 µM 0 | [6]; 10 µM 0 | [7]; 10 µM 0 | [8]; 10 µM 0 | [9]; 10 µM 0 | [10]; 10 µM 0

CN1CCCN(C(=O)c2cccc(-c3ccc(/C=C4/C(=O)Nc5ccc(Cl)cc54)o3)c2)CC1
inactive: [1]; 2.5 µM 0 | [2]; 2.5 µM 0 | [3]; 2.5 µM 0 | [4]; 2.5 µM 0 | [5]; 2.5 µM 0 | [6]; 2.5 µM 0 | [7]; 2.5 µM 0 | [8]; 2.5 µM 0 | [9]; 2.5 µM 0 | [10]; 2.5 µM 0

COc1cc2c(Oc3ccc4[nH]c(C)cc4c3F)ncnc2cc1OCCCN1CCCC1 [Cediranib]
inactive: [1]; 2.5 µM 0 | [2]; 2.5 µM 0 | [3]; 2.5 µM 0 | [4]; 2.5 µM 0 | [5]; 2.5 µM 0 | [6]; 2.5 µM 0 | [7]; 2.5 µM 0 | [8]; 2.5 µM 0 | [9]; 2.5 µM 0 | [10]; 2.5 µM 0

c1cc(-c2cnn3cc(-c4ccc(OCCN5CCCCC5)cc4)cnc23)ccn1 [Dorsomorphin]
inactive: [1]; 2.5 µM 0 | [2]; 2.5 µM 0 | [3]; 2.5 µM 0 | [4]; 2.5 µM 0 | [5]; 2.5 µM 0 | [6]; 2.5 µM 0 | [7]; 2.5 µM 0 | [8]; 2.5 µM 0 | [9]; 2.5 µM 0 | [10]; 2.5 µM 0

COCCOc1cc(F)c2c(Nc3ccc(NC(=O)Cn4cc(C(C)C)nn4)cc3)ncnc2c1 [AZD3229 Tosylate]
inactive: [1]; 10 µM 0 | [2]; 10 µM 0 | [3]; 10 µM 0 | [4]; 10 µM 0 | [5]; 10 µM 0 | [6]; 10 µM 0 | [7]; 10 µM 0 | [8]; 10 µM 0 | [9]; 10 µM 0 | [10]; 10 µM 0

C=CC(=O)Nc1cc(Nc2nccc(-c3cn(C4CC4)c4ccccc34)n2)c(OC)cc1N(C)CCN(C)C [Almonertinib (hydrochloride)]
inactive: [1]; 2.5 µM 0 | [2]; 2.5 µM 0 | [3]; 2.5 µM 0 | [4]; 2.5 µM 0 | [5]; 2.5 µM 0 | [6]; 2.5 µM 0 | [7]; 2.5 µM 0 | [8]; 2.5 µM 0 | [9]; 2.5 µM 0 | [10]; 2.5 µM 0

COc1ncc(F)cc1CNc1ccc(Cc2c[nH]c3ncc(C)cc23)c(F)n1 [PLX5622 (hemifumarate)]
inactive: [1]; 10 µM 0 | [2]; 10 µM 0 | [3]; 10 µM 0 | [4]; 10 µM 0 | [5]; 10 µM 0 | [6]; 10 µM 0 | [7]; 10 µM 0 | [8]; 10 µM 0 | [9]; 10 µM 0 | [10]; 10 µM 0

Nc1cncc(-c2cn3ccnc3c(Nc3ccc(N4CCN(C5COC5)CC4)cc3)n2)n1 [Lanraplenib]
inactive: [1]; 10 µM 0 | [2]; 10 µM 0 | [3]; 10 µM 0 | [4]; 10 µM 0 | [5]; 10 µM 0 | [6]; 10 µM 0 | [7]; 10 µM 0 | [8]; 10 µM 0 | [9]; 10 µM 0 | [10]; 10 µM 0
